The series has as its target T1, His-SOX9(1-190) DNA-binding domain fragment (UniProt P48436).
T1 sequence (looked up): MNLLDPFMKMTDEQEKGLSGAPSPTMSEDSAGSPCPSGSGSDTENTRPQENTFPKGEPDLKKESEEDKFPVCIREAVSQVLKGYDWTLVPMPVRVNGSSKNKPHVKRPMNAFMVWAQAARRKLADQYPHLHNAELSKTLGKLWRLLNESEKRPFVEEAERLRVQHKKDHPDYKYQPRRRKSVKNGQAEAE
The series can be described thus: EMSA. Particulars: poly dI-dC, 10 mM Tris-Cl pH 7.5, 5 mM MgCl2, 50 mM KCl, 1 mM DTT, 2.5% glycerol, 0.5% NP-40, 50 ng/ml poly dI-dC, 40 fmol biotinylated probe, recombinant protein, residues 1-190, protein details: His, label: biotin. On the technique in general: Mobility shift assays separate free from complexed probe on a gel.

[1] abbreviates: text: attenuated, legend: abolished.

For at least one entry, the source does not settle the construct or the ends of the probe. The comparison behind a weaker result is the experiment's own reference, which may not be listed here. Protein sequences can lack the tags named with them.

For “CAATTTAAACCTGTGTTCTGGTTCCCACAA (double strand) [c-myc-335 SOX probe 5'+3' mut]”, the binding result under setting [1] was “binds more weakly”.
Still for that read-out and setting: the same measure for “CAATTTAAACCTGTGTTCTTTGTCCCACAA (double strand) [c-myc-335 SOX probe 5' mut]”: “binds more weakly”; for “CAATTTAACAATGTGTTCTGGTTCCCACAA (double strand) [c-myc-335 SOX probe 3' mut]”: “binds more weakly”.
In the case of “CAATTTAACAATGTGTTCTTTGTCCCACAA (double strand) [c-myc-335 SOX probe WT]”, the binding result is recorded as “binds”.
